Laboratory results: publication PMC5356870

T1: myc-tagged TRAF2 (UniProt Q12933)
T1 sequence: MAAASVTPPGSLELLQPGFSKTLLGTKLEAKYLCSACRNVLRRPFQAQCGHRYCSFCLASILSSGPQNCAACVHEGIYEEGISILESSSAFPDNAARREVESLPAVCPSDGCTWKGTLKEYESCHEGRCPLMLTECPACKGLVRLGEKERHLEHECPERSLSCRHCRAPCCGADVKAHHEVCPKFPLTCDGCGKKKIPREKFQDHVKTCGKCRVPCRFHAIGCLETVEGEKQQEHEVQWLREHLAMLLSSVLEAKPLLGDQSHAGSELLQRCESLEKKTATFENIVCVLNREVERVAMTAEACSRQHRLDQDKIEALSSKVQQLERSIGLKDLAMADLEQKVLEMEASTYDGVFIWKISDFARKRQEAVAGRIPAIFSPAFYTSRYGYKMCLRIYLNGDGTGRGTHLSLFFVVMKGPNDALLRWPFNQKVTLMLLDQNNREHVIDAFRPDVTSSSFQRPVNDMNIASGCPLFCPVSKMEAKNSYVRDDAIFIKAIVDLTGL

B1: TRAF2 (protein, UniProt P39429 1-501)
chain: MAAASVTSPGSLELLQPGFSKTLLGTRLEAKYLCSACKNILRRPFQAQCGHRYCSFCLTSILSSGPQNCAACVYEGLYEEGISILESSSAFPDNAARREVESLPAVCPNDGCTWKGTLKEYESCHEGLCPFLLTECPACKGLVRLSEKEHHTEQECPKRSLSCQHCRAPCSHVDLEVHYEVCPKFPLTCDGCGKKKIPRETFQDHVRACSKCRVLCRFHTVGCSEMVETENLQDHELQRLREHLALLLSSFLEAQASPGTLNQVGPELLQRCQILEQKIATFENIVCVLNREVERVAVTAEACSRQHRLDQDKIEALSNKVQQLERSIGLKDLAMADLEQKVSELEVSTYDGVFIWKISDFTRKRQEAVAGRTPAIFSPAFYTSRYGYKMCLRVYLNGDGTGRGTHLSLFFVVMKGPNDALLQWPFNQKVTLMLLDHNNREHVIDAFRPDVTSSSFQRPVSDMNIASGCPLFCPVSKMEAKNSYVRDDAIFIKAIVDLTGL

What was measured:
myc-tagged TRAF2 = target: T1, myc-tagged TRAF2; assay: co-IP; HEK293 cells transfected with myc-tagged TRAF2, lysed 48 h after transfection in IP lysis buffer (50 mM HEPES, 420 mM KCl, 0.1% NP-40, 1 mM EDTA); precipitated with CD147 antibodies or c-myc antibody on magnetic beads overnight at 4°C, IgG control; immunoblot for CD147 and myc-tagged TRAF2
[1] = target: CD147 (mouse (endogenous in GC-2)); assay: co-IP; GC-2 cell lysate, endogenous proteins; precipitated with anti-CD147 antibody on magnetic beads; immunoblot for CD147 and TRAF2

Row | Molecule | binding (myc-tagged TRAF2) | binding [1]
1 | CD147 (from UniProt P35613-2) | binds | 
2 | B1 |  | binds

Results are given in words; binding and its absence hold for the method and conditions named. Binding seen in cells or lysates may run through a third protein. Binding calls can cover weak binding; strength is not graded here. For some assays here: Tags and fused reporters may be left off the sequences shown.
